According to PMC11233601:
These are yes or no findings as the source states them, for the method shown. Binding seen in cells or lysates may run through a third protein. Some results given as binding are weak or reduced against the parent protein; the word gives no strength. For some of these results: Tags and fused reporters may be left off the sequences shown. Values belong to the binder of their own block, whether it stands above or below them.

Legend:
GFP-FAM122A = GFP-FAM122A (UniProt Q9DB52); assay: co-IP; GFP-FAM122A transfected cells treated with HU and/or CHK1 inhibitor (replication stress)
[1] = target: tagged FAM122A in HEK293 and T98G cells (UniProt Q9DB52); assay: co-IP; B55α bound to tagged FAM122A in HEK293 and T98G cells: exponentially growing, thymidine, RO3306, nocodazole, release from quiescence or from nocodazole
Myc-B55α wild type [2] = target: T1, Myc-B55α wild type (UniProt P63151); assay: co-IP; HEK293T cotransfected with FLAG-FAM122A and Myc-B55α WT and mutants; anti-Myc and anti-FLAG beads 3 h or overnight at 4 °C, washes with DIP lysis buffer, western blot
T1 sequence: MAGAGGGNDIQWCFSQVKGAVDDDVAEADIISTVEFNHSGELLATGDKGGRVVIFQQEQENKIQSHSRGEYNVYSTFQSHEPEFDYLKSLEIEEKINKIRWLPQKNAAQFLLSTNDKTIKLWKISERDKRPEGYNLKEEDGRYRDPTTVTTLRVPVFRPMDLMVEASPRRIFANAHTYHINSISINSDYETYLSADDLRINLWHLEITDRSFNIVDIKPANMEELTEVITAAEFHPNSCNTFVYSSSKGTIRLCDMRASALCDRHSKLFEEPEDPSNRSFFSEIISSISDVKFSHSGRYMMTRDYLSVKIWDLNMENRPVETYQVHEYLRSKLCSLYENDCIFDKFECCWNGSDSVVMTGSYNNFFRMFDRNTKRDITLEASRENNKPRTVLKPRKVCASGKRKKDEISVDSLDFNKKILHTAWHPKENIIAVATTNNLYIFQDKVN

Myc-B55α L225A, P63151 = target: T2, Myc-B55α L225A, P63151; assay: as above; details: remark: other sources report otherwise
T2 chain: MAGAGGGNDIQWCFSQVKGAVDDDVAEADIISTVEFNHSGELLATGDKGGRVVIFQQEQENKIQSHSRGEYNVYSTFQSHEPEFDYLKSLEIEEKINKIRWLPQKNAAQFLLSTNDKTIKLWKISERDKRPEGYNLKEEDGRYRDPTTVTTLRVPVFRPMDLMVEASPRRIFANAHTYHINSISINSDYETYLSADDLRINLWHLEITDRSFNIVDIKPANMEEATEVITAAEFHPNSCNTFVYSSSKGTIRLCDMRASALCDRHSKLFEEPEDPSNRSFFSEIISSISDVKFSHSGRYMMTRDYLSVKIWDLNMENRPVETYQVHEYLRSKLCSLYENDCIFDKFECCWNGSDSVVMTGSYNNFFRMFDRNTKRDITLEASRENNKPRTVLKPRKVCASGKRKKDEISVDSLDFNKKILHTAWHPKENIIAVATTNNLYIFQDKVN

Myc-B55α wild type [3] = target: T1, Myc-B55α wild type; assay: co-IP; competition: HEK293T cotransfected with invariable Myc-B55α and FLAG-p107 and increasing FLAG-FAM122A; anti-Myc IP, western blot

- binding (GFP-FAM122A): binds
- binding [1]: binds
B1: B55α (source not stated; Supplementary Figs. 4C and 8B-F) (protein, UniProt P63151 1-447)
chain: MAGAGGGNDIQWCFSQVKGAVDDDVAEADIISTVEFNHSGELLATGDKGGRVVIFQQEQENKIQSHSRGEYNVYSTFQSHEPEFDYLKSLEIEEKINKIRWLPQKNAAQFLLSTNDKTIKLWKISERDKRPEGYNLKEEDGRYRDPTTVTTLRVPVFRPMDLMVEASPRRIFANAHTYHINSISINSDYETYLSADDLRINLWHLEITDRSFNIVDIKPANMEELTEVITAAEFHPNSCNTFVYSSSKGTIRLCDMRASALCDRHSKLFEEPEDPSNRSFFSEIISSISDVKFSHSGRYMMTRDYLSVKIWDLNMENRPVETYQVHEYLRSKLCSLYENDCIFDKFECCWNGSDSVVMTGSYNNFFRMFDRNTKRDITLEASRENNKPRTVLKPRKVCASGKRKKDEISVDSLDFNKKILHTAWHPKENIIAVATTNNLYIFQDKVN

- binding (Myc-B55α wild type [2]): binds
B2: murine FLAG-FAM122A S73A (protein, UniProt Q9DB52 1-284)
chain: MAQEKMELDLELPAGASPAEGGGPGGGGLRRSNSAPLIHGLSDSSPVFQAEAPSARRNSTTFPSRHGLLLPAAPVRMHSSRLHQIKQEEGMDLINRETVHEREVQTAMQISHSWEESFSLSDNDVEKSASPKRIDFIPVSPAPSPTRGIGKQCFSPSLQSFVSSNGLPPSPIPSPTTRFTTRRSQSPINCIRPSVLGPLKRKCEMETDYQPKRFFQGITNMLSSDVAQLSDPGVCVSSDTLDGNSSSAGSSCNSPAKVSTTTDSPVSPAQAASPFIPVDELSSK

- binding (Myc-B55α wild type [2]): no binding
B3: murine FLAG-FAM122A R81A L82A (protein, UniProt Q9DB52 1-284)
chain: MAQEKMELDLELPAGASPAEGGGPGGGGLRRSNSAPLIHGLSDSSPVFQAEAPSARRNSTTFPSRHGLLLPASPVRMHSSAAHQIKQEEGMDLINRETVHEREVQTAMQISHSWEESFSLSDNDVEKSASPKRIDFIPVSPAPSPTRGIGKQCFSPSLQSFVSSNGLPPSPIPSPTTRFTTRRSQSPINCIRPSVLGPLKRKCEMETDYQPKRFFQGITNMLSSDVAQLSDPGVCVSSDTLDGNSSSAGSSCNSPAKVSTTTDSPVSPAQAASPFIPVDELSSK

- binding (Myc-B55α L225A, P63151): no binding
B4: murine FLAG-FAM122A wild type, Q9DB52 1-284 (protein)
chain: MAQEKMELDLELPAGASPAEGGGPGGGGLRRSNSAPLIHGLSDSSPVFQAEAPSARRNSTTFPSRHGLLLPASPVRMHSSRLHQIKQEEGMDLINRETVHEREVQTAMQISHSWEESFSLSDNDVEKSASPKRIDFIPVSPAPSPTRGIGKQCFSPSLQSFVSSNGLPPSPIPSPTTRFTTRRSQSPINCIRPSVLGPLKRKCEMETDYQPKRFFQGITNMLSSDVAQLSDPGVCVSSDTLDGNSSSAGSSCNSPAKVSTTTDSPVSPAQAASPFIPVDELSSK

- binding (Myc-B55α wild type [2]): no binding
B5: murine FLAG-FAM122A I85A K86A (protein, UniProt Q9DB52 1-284)
chain: MAQEKMELDLELPAGASPAEGGGPGGGGLRRSNSAPLIHGLSDSSPVFQAEAPSARRNSTTFPSRHGLLLPASPVRMHSSRLHQAAQEEGMDLINRETVHEREVQTAMQISHSWEESFSLSDNDVEKSASPKRIDFIPVSPAPSPTRGIGKQCFSPSLQSFVSSNGLPPSPIPSPTTRFTTRRSQSPINCIRPSVLGPLKRKCEMETDYQPKRFFQGITNMLSSDVAQLSDPGVCVSSDTLDGNSSSAGSSCNSPAKVSTTTDSPVSPAQAASPFIPVDELSSK

- binding (Myc-B55α wild type [3]): binds
B6: FLAG-p107 (protein, UniProt P28749 1-1068)
chain: MFEDKPHAEGAAVVAAAGEALQALCQELNLDEGSAAEALDDFTAIRGNYSLEGEVTHWLACSLYVACRKSIIPTVGKGIMEGNCVSLTRILRSAKLSLIQFFSKMKKWMDMSNLPQEFRERIERLERNFEVSTVIFKKYEPIFLDIFQNPYEEPPKLPRSRKQRRIPCSVKDLFNFCWTLFVYTKGNFRMIGDDLVNSYHLLLCCLDLIFANAIMCPNRQDLLNPSFKGLPSDFHTADFTASEEPPCIIAVLCELHDGLLVEAKGIKEHYFKPYISKLFDRKILKGECLLDLSSFTDNSKAVNKEYEEYVLTVGDFDERIFLGADAEEEIGTPRKFTRDTPLGKLTAQANVEYNLQQHFEKKRSFAPSTPLTGRRYLREKEAVITPVASATQSVSRLQSIVAGLKNAPSDQLINIFESCVRNPVENIMKILKGIGETFCQHYTQSTDEQPGSHIDFAVNRLKLAEILYYKILETVMVQETRRLHGMDMSVLLEQDIFHRSLMACCLEIVLFAYSSPRTFPWIIEVLNLQPFYFYKVIEVVIRSEEGLSRDMVKHLNSIEEQILESLAWSHDSALWEALQVSANKVPTCEEVIFPNNFETGNGGNVQGHLPLMPMSPLMHPRVKEVRTDSGSLRRDMQPLSPISVHERYSSPTAGSAKRRLFGEDPPKEMLMDKIITEGTKLKIAPSSSITAENVSILPGQTLLTMATAPVTGTTGHKVTIPLHGVANDAGEITLIPLSMNTNQESKVKSPVSLTAHSLIGASPKQTNLTKAQEVHSTGINRPKRTGSLALFYRKVYHLASVRLRDLCLKLDVSNELRRKIWTCFEFTLVHCPDLMKDRHLDQLLLCAFYIMAKVTKEERTFQEIMKSYRNQPQANSHVYRSVLLKSIPREVVAYNKNINDDFEMIDCDLEDATKTPDCSSGPVKEERGDLIKFYNTIYVGRVKSFALKYDLANQDHMMDAPPLSPFPHIKQQPGSPRRISQQHSIYISPHKNGSGLTPRSALLYKFNGSPSKSLKDINNMIRQGEQRTKKRVIAIDSDAESPAKRVCQENDDVLLKRLQDVVSERANH
